This assay has as its target bovine serum albumin (bovine) (UniProt P02769). Briefly: ELISA; BSA coated on microtiter wells (10 μg/ml in 0.1 M NaHCO3 pH 9.6, 0.5 μg/well); 1–10 μg/ml SP-A or SP-D in 20 mM Tris pH 7.4, 0.15 M NaCl, 5 mM CaCl2, 1 mg/ml BSA, 3 h at 37°C; detected with anti-SP-A or anti-SP-D antibody and HRP anti-rabbit IgG; both purified.

Sequences of proteins named here, by UniProt entry; tags and fusion partners are left off. Residues count along the entry.
UniProt P02769, residues 25-607: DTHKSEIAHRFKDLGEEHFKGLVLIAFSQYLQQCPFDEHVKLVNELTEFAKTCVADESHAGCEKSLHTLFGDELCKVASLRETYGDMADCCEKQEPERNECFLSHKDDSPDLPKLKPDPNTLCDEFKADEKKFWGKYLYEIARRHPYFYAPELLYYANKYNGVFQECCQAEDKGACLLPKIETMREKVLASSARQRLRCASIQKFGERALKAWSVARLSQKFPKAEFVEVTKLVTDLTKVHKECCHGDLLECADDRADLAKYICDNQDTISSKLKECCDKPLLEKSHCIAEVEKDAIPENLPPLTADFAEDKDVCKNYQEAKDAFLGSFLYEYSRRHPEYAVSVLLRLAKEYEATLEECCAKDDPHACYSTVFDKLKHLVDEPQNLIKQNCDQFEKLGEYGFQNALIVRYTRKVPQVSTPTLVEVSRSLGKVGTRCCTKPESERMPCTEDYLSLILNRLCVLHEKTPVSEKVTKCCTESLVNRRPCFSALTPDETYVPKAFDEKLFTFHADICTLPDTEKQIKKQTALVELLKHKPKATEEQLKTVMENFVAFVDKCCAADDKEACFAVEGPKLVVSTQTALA
UniProt P35247, residues 21-375: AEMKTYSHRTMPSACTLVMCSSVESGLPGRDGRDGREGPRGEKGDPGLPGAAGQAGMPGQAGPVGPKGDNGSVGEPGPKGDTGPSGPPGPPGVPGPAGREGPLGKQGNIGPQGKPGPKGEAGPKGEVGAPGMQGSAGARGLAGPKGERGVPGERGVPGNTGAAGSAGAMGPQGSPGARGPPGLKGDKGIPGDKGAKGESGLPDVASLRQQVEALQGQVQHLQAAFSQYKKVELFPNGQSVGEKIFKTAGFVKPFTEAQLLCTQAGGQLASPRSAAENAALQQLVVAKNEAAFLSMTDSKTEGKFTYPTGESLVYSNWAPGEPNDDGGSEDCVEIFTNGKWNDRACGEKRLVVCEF

These are yes or no findings as the source states them, for the method shown.

As to “recombinant human surfactant protein D (SP-D) (from UniProt P35247 21-375)”, the binding result was “no binding (tested: 1–10 μg/ml)”.

(Values after article PMC543449.)
